These results are taken from publication PMC6016943.

For the test, the target named is T1, SAUR19 (SMALL AUXIN UP RNA 19), yeast two-hybrid bait from pBTM116-SAUR19 (Arabidopsis thaliana) (UniProt Q9FJG1).
T1 sequence: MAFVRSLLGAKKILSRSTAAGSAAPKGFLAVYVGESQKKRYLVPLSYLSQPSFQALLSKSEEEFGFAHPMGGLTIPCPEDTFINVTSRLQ
Put plainly: two-hybrid; lexA-based yeast two-hybrid; bait pBTM116-SAUR19, prey pACT2-PP2C.D, strain L40ccU3; selection media, room temperature, 3 to 6 days.

These are yes or no findings as the source states them, for the method shown. Binding calls can cover weak binding; strength is not graded here.

Take “PP2C.D1, yeast two-hybrid prey from pACT2-PP2C.D1 (Arabidopsis thaliana) (enzyme)”: the binding result is reported as “binds”.
